Paper PMC7859239

T1: S. pombe Pol I subunit AC40 with C-terminal flag-his tag (Schizosaccharomyces pombe (endogenous in S. pombe)) (UniProt O94616)
T1 sequence: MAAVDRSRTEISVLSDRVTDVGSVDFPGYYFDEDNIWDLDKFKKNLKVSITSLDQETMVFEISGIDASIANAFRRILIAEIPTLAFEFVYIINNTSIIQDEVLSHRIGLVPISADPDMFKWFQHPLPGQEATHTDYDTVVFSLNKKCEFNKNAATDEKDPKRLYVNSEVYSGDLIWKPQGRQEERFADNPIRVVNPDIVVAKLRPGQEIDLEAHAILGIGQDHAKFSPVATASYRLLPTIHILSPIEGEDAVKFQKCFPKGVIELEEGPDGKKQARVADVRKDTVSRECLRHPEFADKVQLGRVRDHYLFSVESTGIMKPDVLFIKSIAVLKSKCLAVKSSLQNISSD

B1: S. pombe Pol I subunit A135 (protein, UniProt Q9P7X8 1-1174)
chain: MSFQTLERERTFKNPPKDGTSFPDLQKAVKPHVDSFNALTNAGLLNYAVKEIGEKCAFDSITQEEGGALKFGNKISFRVDEVQIAKPMLSSRERSSINRKVYPAEARERLTTYKSRLVLKFSWSVNGGPRQSEMREVGMIPIMVRSNRCHLEGLSPAELIAHKEESEEMGGYFIVNGIEKLIRMLILPKRNHPTAIIRPSFANRGTSYSQYGLSIRCVRPDQSSLTNTLHYLNNGVTMFRFHWRKNEYLIPSMMILKALLETSDKEIFEGIVGKDLGNTFLTDRVELMLRAYKSYGLYSQTETLQYLGSKFRVVLGVAEDLTDVEVGRFLLQKVVLVHLREAKDKFRLLLFMIRKLYALVAGECCADNPDSPQHQEILLGGFLYGQILKEKIEDWLNSIRAQINLDVRRSAPGVDFSDRKYLTRVFSKINNDIGTKLQYFLSTGNLVSNTGLDLQQATGYTVVAEKLNFYRFLSHFRMVHRGAFFAELKTTTVRKLLPEAWGFMCPVHTPDGSPCGLLNHLARKCEIVTHPSDVSQIPSLLLSLGVDPPSVVGHESGWGCVQLDGKIVGWCTYKLAKHVADVLRLMKIEYAVKLRNGTATEPAKVPLDLEIGYVPPSHNGQYPGLYLFSNPARMVRPVKHISTGELDMLGPFEQVYMDIACFPKEIVPKVSTHVEYSPTNVLSIVANMTPFSDFNQSPRNMYQCQMGKQTMGTPGTALRYRTDNKLYRLQTGQTPVVRPKLHNTYGLDHYPNGTNAVVAVISYTGYDMEDAMILNKSAHERGFGYGTVYKGESFDLSQKRRRGEPVVHHFGFAPGSTPRREWLQKLDADGLPFIGIKLEDGDPIVAYYDESTGQNFIETYHGTEPGFVDEVRLLGNDVGDSECQQIHVKLRITRSPIIGDKFSSRHGQKGICSQKWPTVDMPFTESGMQPDIIINPHAFPSRMTIGMFIESLAGKAGACHGLAQDSTPFIYSEQQTAADYFGEQLVKAGYNYHGNEPMYSGITGQEMKADIYIGVVYYQRLRHMVSDKFQVRTTGPIHNLTRQPVKGRKRAGGIRFGEMERDAVIGHGTSFLMQDRLMNCSDYAQSWVCRDCGSIISIMSTISMNGVGSASEVRCRSCAKPALGLEDTSDIWQDGSGKKFVGGTNTTLIALPSVFNYLTAELTAMNIKMMLEVK
B2: S. pombe Pol I subunit A14 (ker1 in Sp) (protein, UniProt Q9P7P1 1-147)
chain: MATECPPKMILRKSEKLDKDASSKFLNRYIQTIERFQDEKSGSESVLSQLNRVLMYLKGEEIPLISLNLPVQGPPTEELIIPPEEMLETKEEESLKHAREENDDLHLDKETKKRLKKEKKKAARREKEEARKAKADTTQGVGEKEQS

Target: T1, S. pombe Pol I subunit AC40 with C-terminal flag-his tag (Schizosaccharomyces pombe (endogenous in S. pombe))
Assay: affinity purification with mass spectrometry; endogenous Pol I purified from S. pombe extract by the 10xHis tag on AC40 (Ni-NTA), then MonoQ and MonoS; subunits seen as bands on Coomassie-stained SDS-PAGE; A49/A34.5 also by mass spectrometry

Binder | binding
B1 | binds
B2 | binds

Results are given in words; binding and its absence hold for the method and conditions named. In cells and extracts the contact can be indirect. A yes stands for co-enrichment or nearness to the bait. Other partners may have been found. Sequences can lack the tags named with a protein.
